Assay results reported in PubChem BioAssay AID493014 (National Center for Advancing Translational Sciences (NCATS), 2011).
Out of some 340,000 compounds screened, about 170 (0.05%) were called active. The shares of active, inactive and inconclusive entries below differ from those in the screen. Calls come from the whole dose curve; as a rule, active = well fitted inhibition curve with a large enough effect in the signal ratio, with a control signal flat (not every such curve was filed as active); inconclusive = small, poorly fitted or top-dose-only effect, or effect the other way, or a change in a side signal; inactive = flat fitted curve, though single readings scatter; the % refers to the signal ratio. Where the call is inconclusive, the potency comes from a doubtful curve fit.

assay: qHTS Assay to Find Inhibitors of Chronic Active B-Cell Receptor Signaling; settings: ABC-DLBCL IkBa-CBG/CBR reporter, luminescence ratio (green luciferase fused to IkBa over red control in TMD8 lymphoma cells), 4 h; activity change, negative = inhibition: at 46.1 µM (top of the series) unless noted;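 for activity change, negative = inhibition: plate controls were basal doxycycline-induced cells for no effect and cells given 10 µM MG132 for full effect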
Outline: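 Concentration-response series (up to 46 uM) were applied to TMD8 dual-reporter cells for 4 h at 37C with doxycycline. Green/red ratio, after filter-overlap correction, defined %Activity; red signal alone was normalised to basal cells and zero luminescence.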
Potency is the fitted concentration of half-maximal effect.

| Compound | activity change, negative = inhibition | Potency |
| --- | --- | --- |
| CCC(C)(C)C1CCC(NC(=O)c2ccc(S(=O)(=O)N3CCOCC3)cc2)CC1 (stereo not given) | inactive: 1.8% |  |
| Cc1cc(F)ccc1S(=O)(=O)N1CCCOC1CNC(=O)C(=O)NCC(C)C (stereo not given) | inconclusive: -51.2% |  |
| NC(=O)N1CCC2(CC1)NC(=O)N(c1ccccc1)N2 | inconclusive: 6.72% |  |
| CC(=O)Nc1ccc(OCC(O)Cn2nc(C)c(C)c2C)cc1 (stereo not given) | inconclusive: 0.0588% |  |
| CN(C)C(=O)c1nc2ccccc2s1 |  | inconclusive: 29.1 µM [falling, partial curve, poor fit] |
| CN(C)S(=O)(=O)c1cccc(NC(=S)NN=C(Cc2ccccc2)Cc2ccccc2)c1 | inactive: -6.92% |  |
| Cn1c(C2CCCCC2)nc2ccccc21 | inconclusive: 1.67% |  |
| Nc1ccccc1Nc1cccc(C(F)(F)F)c1 | inconclusive: 0.413% |  |
| O=C(Nc1cccnc1)c1ccc(-c2ccc(Cl)cc2)o1 |  | inconclusive: 35.5 µM [falling, single point] |
| CCCCc1ccc(C2C(C#N)=C(N)SC(N)=C2C#N)s1 | inactive: 7.9% |  |
| COc1cc(OC)c2c(=O)c(OC)c(-c3ccc(OC)c(OC)c3)oc2c1 |  | inconclusive: 17.8 µM [falling, partial curve] |
| COc1ccccc1N1CCN(Cc2cc(Br)c(O)c3ncccc23)CC1 | inconclusive: -20.1% |  |
| CCN(CC)C(=O)CSc1nc(Cc2ccccc2)nc2ccccc12 | inactive: -3.77% |  |
| COc1ccccc1NC(=O)c1ccc(C(=O)c2ccccc2)o1 | inconclusive: -16.3% |  |
| COc1cccc(CNC(=O)c2ccc3c(c2)N(Cc2ccc(F)cc2Cl)C(=O)c2ccccc2S3)c1 | inconclusive: -13.9% |  |
| CCNC(=O)CSc1nc(-c2ccc(F)cc2)cs1 | inactive: -4.22% |  |
| CC1CN(C(=S)Nc2ccccc2C(F)(F)F)CC(C)O1 (stereo not given) | inactive: 6.65% |  |
| COc1ccc(CCNC(=S)NC(=O)c2cc(OC)c(OC)c(OC)c2)cc1OC |  | inconclusive: 8.91 µM [falling, partial curve, poor fit] |
| CCOC(=O)[C@H]1[C@H]2COc3ccc(C)cc3[C@@H]2N2C(=O)c3cc(Br)ccc3NC(=O)[C@@]12C | inconclusive: 2.44% |  |
| COC(=O)c1ccc2c(=O)n(CCO)c(=S)[nH]c2c1 | inconclusive: -10.7% |  |
| Cc1ccsc1/C=N/NC(=O)c1nnn(-c2nonc2N)c1CN(C)c1ccccc1 | inconclusive: 7.41% |  |
| CC(=O)c1cccc(NC(=O)N2CCCC2C(=O)Nc2cccc(C)c2)c1 (stereo not given) | inconclusive: 1.59% |  |
| CCCOC(=O)C1=C(C)NC2=C(C(=O)CCC2)C1c1ccc(N(C)C)cc1 (stereo not given) | inconclusive: 0.406% |  |
| COc1ccc(-c2nn(-c3ccccc3)cc2/C=N/NC(=O)c2ccc3c(c2)OCO3)cc1 | inactive: -9.28% |  |
| COc1ccc(C(=O)N2C(=S)NC(=O)/C2=C\c2ccc(C)cc2)cc1 | inconclusive: 16.8% |  |
| CC(C)Oc1ccc(/C=C(/NC(=O)c2ccccc2)C(=O)NCCC(=O)O)cc1 | inconclusive: -13.5% |  |
| N#CCCn1nc(-c2ccccc2)c2ccccc2c1=O | inconclusive: 1.83% |  |

| Compound | activity change, negative = inhibition | Potency |
| --- | --- | --- |
| CCOC(=O)c1ccc(NC(=O)CN(Cc2ccc(Cl)cc2)S(C)(=O)=O)cc1 | inconclusive: 5.43% |  |
| COCC(C)n1c(SCc2nc(N)nc(Nc3ccccc3C)n2)nc2ccccc2c1=O (stereo not given) |  | inconclusive: 4.61 µM [falling, single point] |
| CCCc1[nH]nc2c1C(c1ccc(OC)c(CSC3=NCCS3)c1)C(C#N)=C(N)O2 (stereo not given) |  | inconclusive: 35.5 µM [falling, partial curve, poor fit] |
| O=C(C(c1ccccc1)c1ccccc1)N(Cc1ccco1)C1CCS(=O)(=O)C1 (stereo not given) | inconclusive: -0.876% |  |
| O=C(CSc1nnc(SCc2ccccc2)s1)N/N=C/c1ccc(C(=O)O)cc1 |  | inconclusive: 15.8 µM [falling, single point] |
| CCc1cc(=O)oc2cc(OCC(=O)NCCN3CCOCC3)c(Cl)cc12 | inconclusive: 4.28% |  |
| Cc1cnc(C(=O)OCC(=O)NC(C)CCc2ccccc2)cn1 (stereo not given) | inactive: 8.83% |  |
| Cn1c(CCc2ccccc2)nnc1SCC(=O)N1CCCC1 | inconclusive: 7.92% |  |
| Cc1cc(C(=O)NCCc2ccc(S(N)(=O)=O)cc2)c(C)o1 | inactive: 1.39% |  |
| C#CCOCCOCCOCCNc1nc(N2CCN(C(=O)CCCCCCCCCCNC(=O)[C@H](CO)n3cc(CCCSC)nn3)CC2)nc(N2CCN(C(=O)CCCCCCCCCCNC(=O)[C@H](CO)n3cc(CCCSC)nn3)CC2)n1 | inactive: 9.37% |  |
| CCOC(=O)c1sc(NC(=O)CCN2CCCCCC2)c(C(=O)OCC)c1C | inconclusive: -1.09% |  |
| Oc1ccc2ccccc2c1C=NCc1cn2ccsc2n1 |  | inconclusive: 20 µM [falling, single point] |
| Cc1cc(Br)cc2c(C(=O)NCC3CCCO3)cc(-c3cccs3)nc12 (stereo not given) | inactive: 3.43% |  |
| Cc1ccc(C(=O)Cc2cc3ccccc3oc2=O)c(C)c1 | inconclusive: 5.12% |  |
| Cc1noc(/C=C/N(C)C)c1S(=O)(=O)N(C)Cc1ccc(F)cc1 | inconclusive: 9.64% |  |
| COc1cc(/C=N/Nc2ccc(Cl)nn2)cc(OC)c1O | inconclusive: -12.2% |  |
| O=C(CCc1ccccc1)Nc1ncn[nH]1 | inactive: -2.21% |  |
| CCOC(=O)N1CCC(Nc2cc(C)nc3c(-c4ccccc4OC)c(C)nn23)CC1 | inactive: 9.46% |  |
| Cc1ccccc1CCN(C(=O)c1csnn1)C(C(=O)NC1CCCC1)c1ccncc1 (stereo not given) | inconclusive: 2.14% |  |
| COc1ccccc1N1CCN(S(=O)(=O)c2cn(C)nc2C)CC1 | inactive: 0.177% |  |
| O=C(Nc1cc2c3c(c1)CC(=O)N3CCC2)c1ccccc1Br |  | inconclusive: 18.4 µM [falling, partial curve] |
| O=[N+]([O-])c1cc2c(cc1CN1CCN(c3ccccc3F)CC1)OCO2 | inconclusive: 7.03% |  |
| CCc1cc2c(=O)c(-c3nc4ccccc4n3C)coc2c(CN2CCCCC2)c1O | inactive: 5.59% |  |
| O=C(COc1ccc(Cl)cc1)Nc1cccc(-c2ccc(N3CCOCC3)nn2)c1 |  | inconclusive: 16.4 µM [falling, single point] |
| Cc1nn(CC(O)COc2ccc3c(c2)CCC3)c(C)c1Br (stereo not given) |  | inconclusive: 35.5 µM [falling, single point] |
| Cc1ccc(NC(=O)Cn2c(=O)n(CCCCC(=O)NCc3ccco3)c(=O)c3ccccc32)cc1 |  | inconclusive: 3.66 µM [falling, full curve] |
| O=C(Nc1cccc([N+](=O)[O-])c1)c1ccncc1 | inconclusive: 6.21% |  |

| Compound | activity change, negative = inhibition | Potency |
| --- | --- | --- |
| Cc1ccc(S(=O)(=O)CCC(=O)OCC(=O)NC2CCS(=O)(=O)C2)cc1 (stereo not given) | inconclusive: 16.4% |  |
| COc1cc([N+](=O)[O-])ccc1NC(=O)COC(=O)CCOc1ccc(C)cc1 | inconclusive: 11.6% |  |
| O=Cc1cccn1-c1cccc([N+](=O)[O-])c1 |  | inconclusive: 3.98 µM [falling, full curve, poor fit] |
| COc1ccc(CNC(=O)[C@@H](NC(=O)C2CCN(C(=O)[C@@H]3CCCN3C(=O)OC(C)(C)C)CC2)C(C)C)cc1 | inconclusive: 1.57% |  |
| O=C(c1cc(-c2ccc(Cl)cc2)on1)N1CCCCCC1 |  | inconclusive: 3.55 µM [falling, single point] |
| COc1ccc(NC(=O)CCS(=O)(=O)c2ccc(Cl)cc2)cc1 | inactive: -3.31% |  |
| CC(C)(C)N(Cc1cc2ccccc2[nH]c1=O)C(=O)c1cccc([N+](=O)[O-])c1 | inactive: 5.75% |  |
| COc1ccc(C(CNC(=O)c2cccc(S(=O)(=O)Nc3ccccc3OC)c2)N2CCCC2)cc1 (stereo not given) | inconclusive: 0.303% |  |
| CCCNC(=O)CCc1cc(C(C)(C)C)c(O)c(C(C)(C)C)c1 | inconclusive: 0.885% |  |
| O=C(Nc1cccc(C(F)(F)F)c1)c1cccnc1NCCc1ccccc1 | inactive: 7.9% |  |
| C/C(=N\NC(=O)c1ccccc1Br)c1ccc(N2CCOCC2)cc1 |  | inconclusive: 15.8 µM [falling, partial curve] |
| CCOC(=O)C1CCN(c2cc3c(cc2NC(=O)c2cc(OC)ccc2Br)n(C)c(=O)n3C)CC1 | inactive: 0.753% |  |
| COc1cccc(-c2nc3ccc([N+](=O)[O-])cc3o2)c1 | inconclusive: -0.635% |  |
| N#CCCN(C(=O)CSc1ccc2c(c1)OCCO2)c1ccc(F)cc1 |  | inconclusive: 32.6 µM [falling, partial curve, poor fit] |
| CCOC(=O)c1ccc(NC(=O)CSc2nnc(-c3ccncc3)n2-c2ccccc2)cc1 | inconclusive: 5.12% |  |
| COc1ccc(NC(=O)Nc2cc(C)cc(C)c2)cn1 | inconclusive: 15.9% |  |
| O=C(O)c1cccc2c1C(=O)c1cc(Br)ccc1S2(=O)=O | inactive: -2.14% |  |
| O=C(NCc1ccccc1)C(Cc1ccccc1)N1C(=O)C2C3CCC(C3)C2C1=O (stereo not given) | inconclusive: -11.2% |  |
| CCn1ncc(CN2CCC(Oc3cc(C(=O)NC4CC4)ccc3OC)CC2)c1C | inconclusive: 5.59% |  |
| COC(=O)c1c(-c2cccs2)csc1NC(=O)c1cccnc1 | inconclusive: 4.23% |  |
| CCN(CC)CCOC(=O)c1ccc(N/C=C(/C#N)c2nc(-c3cccc(OC)c3)cs2)cc1 | inconclusive: 0.379% |  |
| COc1ccc(NC2=C(Cl)C(=O)N(CCc3ccccc3)C2=O)cc1 | inactive: 0.388% |  |
| CCOc1ccc2nc(NC(=S)N(C)C)sc2c1 |  | inconclusive: 6.51 µM [falling, partial curve, poor fit] |
| N#Cc1ccccc1OCC(=O)Nc1cccc(S(=O)(=O)N2CCCCCC2)c1 |  | inconclusive: 10.3 µM [falling, partial curve] |
| CCOc1ccc(Cn2nnc(C(=O)Nc3ccc(OC)cc3OC)c2N)cc1 | inconclusive: 6.84% |  |
| O=C(CSc1ccc(-c2cccnc2)nn1)Nc1ccccc1F | inactive: -1.41% |  |

Part of the list above, with tabs.
Compound	activity change, negative = inhibition	Potency
Cc1ccc(S(=O)(=O)CCC(=O)OCC(=O)NC2CCS(=O)(=O)C2)cc1 (stereo not given)	inconclusive: 16.4%	
O=Cc1cccn1-c1cccc([N+](=O)[O-])c1		inconclusive: 3.98 µM [falling, full curve, poor fit]
CC(C)(C)N(Cc1cc2ccccc2[nH]c1=O)C(=O)c1cccc([N+](=O)[O-])c1	inactive: 5.75%	
COc1ccc(C(CNC(=O)c2cccc(S(=O)(=O)Nc3ccccc3OC)c2)N2CCCC2)cc1 (stereo not given)	inconclusive: 0.303%	
CCCNC(=O)CCc1cc(C(C)(C)C)c(O)c(C(C)(C)C)c1	inconclusive: 0.885%	
O=C(Nc1cccc(C(F)(F)F)c1)c1cccnc1NCCc1ccccc1	inactive: 7.9%	
CCOC(=O)C1CCN(c2cc3c(cc2NC(=O)c2cc(OC)ccc2Br)n(C)c(=O)n3C)CC1	inactive: 0.753%	
COc1cccc(-c2nc3ccc([N+](=O)[O-])cc3o2)c1	inconclusive: -0.635%	
N#CCCN(C(=O)CSc1ccc2c(c1)OCCO2)c1ccc(F)cc1		inconclusive: 32.6 µM [falling, partial curve, poor fit]
CCOC(=O)c1ccc(NC(=O)CSc2nnc(-c3ccncc3)n2-c2ccccc2)cc1	inconclusive: 5.12%	
COc1ccc(NC(=O)Nc2cc(C)cc(C)c2)cn1	inconclusive: 15.9%	
O=C(NCc1ccccc1)C(Cc1ccccc1)N1C(=O)C2C3CCC(C3)C2C1=O (stereo not given)	inconclusive: -11.2%	
CCn1ncc(CN2CCC(Oc3cc(C(=O)NC4CC4)ccc3OC)CC2)c1C	inconclusive: 5.59%	
COC(=O)c1c(-c2cccs2)csc1NC(=O)c1cccnc1	inconclusive: 4.23%	
CCN(CC)CCOC(=O)c1ccc(N/C=C(/C#N)c2nc(-c3cccc(OC)c3)cs2)cc1	inconclusive: 0.379%	
COc1ccc(NC2=C(Cl)C(=O)N(CCc3ccccc3)C2=O)cc1	inactive: 0.388%	
CCOc1ccc2nc(NC(=S)N(C)C)sc2c1		inconclusive: 6.51 µM [falling, partial curve, poor fit]
N#Cc1ccccc1OCC(=O)Nc1cccc(S(=O)(=O)N2CCCCCC2)c1		inconclusive: 10.3 µM [falling, partial curve]
CCOc1ccc(Cn2nnc(C(=O)Nc3ccc(OC)cc3OC)c2N)cc1	inconclusive: 6.84%	
